# Results deposited as PubChem BioAssay AID1508597 (Cure First, 2020)
# Purpose: 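Genes whose silencing sensitises or protects ovarian cancer cells against rucaparib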 (primary screen)
# System: human ovarian carcinoma lines grown from tumours: OCI-P5x (papillary serous) and OCI-C5x (clear cell)
# Reagents: siRNA pool against human genes, 1.25 pmol siRNA per well
# Duration: 72 h or 96 h, depending on the cell culture
# Conditions: rucaparib 20 µM (about IC30) or vehicle, present until read-out
# Measured: 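ATP luminescence measured at 72 or 96 h according to the culture, then normalised and expressed as percent viability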
# Reading the numbers: viability, normalised: higher = more viable cells remaining
# Call rule: 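Active when normalised viability falls below 80 percent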
# Meaning of the calls: active = viability under 80%; inactive = viability 80% or more
# Here is one part, drawn at random, of about 2,100 deposited reagents. 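Calls flag viability under 80% in either arm, not effects specific to rucaparib; the reference for percent is not stated.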 Entries without a mark were called inactive. Not stated in the record: the 100% reference.
"viability, normalised (%)",Gene,rucaparib or vehicle,cell line,technical replicate
60.7 (active),PIKFYVE,Rucaparib,OCI-C5x (clear cell),1
52 (active),PIKFYVE,Rucaparib,OCI-C5x (clear cell),2
55.8 (active),PIKFYVE,Rucaparib,OCI-C5x (clear cell),3
130,PIKFYVE,Rucaparib,OCI-P5x (serous),1
106,PIKFYVE,Rucaparib,OCI-P5x (serous),2
95.7,PIKFYVE,Rucaparib,OCI-P5x (serous),3
52.7 (active),PIKFYVE,Vehicle,OCI-C5x (clear cell),1
43.8 (active),PIKFYVE,Vehicle,OCI-C5x (clear cell),2
29.5 (active),PIKFYVE,Vehicle,OCI-C5x (clear cell),3
89.4,PIKFYVE,Vehicle,OCI-P5x (serous),1
79.7 (active),PIKFYVE,Vehicle,OCI-P5x (serous),2
77.5 (active),PIKFYVE,Vehicle,OCI-P5x (serous),3
58.3 (active),PIK3CG,Rucaparib,OCI-C5x (clear cell),1
80.7,PIK3CG,Rucaparib,OCI-C5x (clear cell),2
67.9 (active),PIK3CG,Rucaparib,OCI-C5x (clear cell),3
72.2 (active),PIK3CG,Rucaparib,OCI-P5x (serous),1
105,PIK3CG,Rucaparib,OCI-P5x (serous),2
99.9,PIK3CG,Rucaparib,OCI-P5x (serous),3
87.7,PIK3CG,Vehicle,OCI-C5x (clear cell),1
91.1,PIK3CG,Vehicle,OCI-C5x (clear cell),2
74.2 (active),PIK3CG,Vehicle,OCI-C5x (clear cell),3
98.6,PIK3CG,Vehicle,OCI-P5x (serous),1
84.9,PIK3CG,Vehicle,OCI-P5x (serous),2
80.9,PIK3CG,Vehicle,OCI-P5x (serous),3
87.1,APPL2,Rucaparib,OCI-C5x (clear cell),1
63.5 (active),APPL2,Rucaparib,OCI-C5x (clear cell),2
63.5 (active),APPL2,Rucaparib,OCI-C5x (clear cell),3
87.3,APPL2,Rucaparib,OCI-P5x (serous),1
94.4,APPL2,Rucaparib,OCI-P5x (serous),2
79.7 (active),APPL2,Rucaparib,OCI-P5x (serous),3
58.4 (active),APPL2,Vehicle,OCI-C5x (clear cell),1
74.3 (active),APPL2,Vehicle,OCI-C5x (clear cell),2
58 (active),APPL2,Vehicle,OCI-C5x (clear cell),3
89.8,APPL2,Vehicle,OCI-P5x (serous),1
81.2,APPL2,Vehicle,OCI-P5x (serous),2
85.6,APPL2,Vehicle,OCI-P5x (serous),3
61.1 (active),STK36,Rucaparib,OCI-C5x (clear cell),1
48.2 (active),STK36,Rucaparib,OCI-C5x (clear cell),2
55.6 (active),STK36,Rucaparib,OCI-C5x (clear cell),3
106,STK36,Rucaparib,OCI-P5x (serous),1
89.4,STK36,Rucaparib,OCI-P5x (serous),2
106,STK36,Rucaparib,OCI-P5x (serous),3
65.9 (active),STK36,Vehicle,OCI-C5x (clear cell),1
61.8 (active),STK36,Vehicle,OCI-C5x (clear cell),2
55.6 (active),STK36,Vehicle,OCI-C5x (clear cell),3
91.2,STK36,Vehicle,OCI-P5x (serous),1
71.4 (active),STK36,Vehicle,OCI-P5x (serous),2
88,STK36,Vehicle,OCI-P5x (serous),3
37.6 (active),PWWP2B,Rucaparib,OCI-C5x (clear cell),1
41 (active),PWWP2B,Rucaparib,OCI-C5x (clear cell),2
47.7 (active),PWWP2B,Rucaparib,OCI-C5x (clear cell),3
50.5 (active),PWWP2B,Rucaparib,OCI-P5x (serous),1
50.7 (active),PWWP2B,Rucaparib,OCI-P5x (serous),2
51.3 (active),PWWP2B,Rucaparib,OCI-P5x (serous),3
44.5 (active),PWWP2B,Vehicle,OCI-C5x (clear cell),1
37.7 (active),PWWP2B,Vehicle,OCI-C5x (clear cell),2
48.3 (active),PWWP2B,Vehicle,OCI-C5x (clear cell),3
62.7 (active),PWWP2B,Vehicle,OCI-P5x (serous),1
67.4 (active),PWWP2B,Vehicle,OCI-P5x (serous),2
76.7 (active),PWWP2B,Vehicle,OCI-P5x (serous),3

Targets above whose target name starts with S or s (12):
"viability, normalised (%)",Gene,rucaparib or vehicle,cell line,technical replicate
61.1 (active),STK36,Rucaparib,OCI-C5x (clear cell),1
48.2 (active),STK36,Rucaparib,OCI-C5x (clear cell),2
55.6 (active),STK36,Rucaparib,OCI-C5x (clear cell),3
106,STK36,Rucaparib,OCI-P5x (serous),1
89.4,STK36,Rucaparib,OCI-P5x (serous),2
106,STK36,Rucaparib,OCI-P5x (serous),3
65.9 (active),STK36,Vehicle,OCI-C5x (clear cell),1
61.8 (active),STK36,Vehicle,OCI-C5x (clear cell),2
55.6 (active),STK36,Vehicle,OCI-C5x (clear cell),3
91.2,STK36,Vehicle,OCI-P5x (serous),1
71.4 (active),STK36,Vehicle,OCI-P5x (serous),2
88,STK36,Vehicle,OCI-P5x (serous),3
